In patent publication US10822333B2, “Pyridopyrimidines derivatives compounds” (BIOLAB SANUS FARMACEUTICA LTDA, priority 2014, dated 2020):
For at least one compound, name, drawing or mass did not settle the structure.

By UniProt entry, the sequences of proteins in these tests, tags left out. Residues count along the entry.
UniProt P25092, 24-1073: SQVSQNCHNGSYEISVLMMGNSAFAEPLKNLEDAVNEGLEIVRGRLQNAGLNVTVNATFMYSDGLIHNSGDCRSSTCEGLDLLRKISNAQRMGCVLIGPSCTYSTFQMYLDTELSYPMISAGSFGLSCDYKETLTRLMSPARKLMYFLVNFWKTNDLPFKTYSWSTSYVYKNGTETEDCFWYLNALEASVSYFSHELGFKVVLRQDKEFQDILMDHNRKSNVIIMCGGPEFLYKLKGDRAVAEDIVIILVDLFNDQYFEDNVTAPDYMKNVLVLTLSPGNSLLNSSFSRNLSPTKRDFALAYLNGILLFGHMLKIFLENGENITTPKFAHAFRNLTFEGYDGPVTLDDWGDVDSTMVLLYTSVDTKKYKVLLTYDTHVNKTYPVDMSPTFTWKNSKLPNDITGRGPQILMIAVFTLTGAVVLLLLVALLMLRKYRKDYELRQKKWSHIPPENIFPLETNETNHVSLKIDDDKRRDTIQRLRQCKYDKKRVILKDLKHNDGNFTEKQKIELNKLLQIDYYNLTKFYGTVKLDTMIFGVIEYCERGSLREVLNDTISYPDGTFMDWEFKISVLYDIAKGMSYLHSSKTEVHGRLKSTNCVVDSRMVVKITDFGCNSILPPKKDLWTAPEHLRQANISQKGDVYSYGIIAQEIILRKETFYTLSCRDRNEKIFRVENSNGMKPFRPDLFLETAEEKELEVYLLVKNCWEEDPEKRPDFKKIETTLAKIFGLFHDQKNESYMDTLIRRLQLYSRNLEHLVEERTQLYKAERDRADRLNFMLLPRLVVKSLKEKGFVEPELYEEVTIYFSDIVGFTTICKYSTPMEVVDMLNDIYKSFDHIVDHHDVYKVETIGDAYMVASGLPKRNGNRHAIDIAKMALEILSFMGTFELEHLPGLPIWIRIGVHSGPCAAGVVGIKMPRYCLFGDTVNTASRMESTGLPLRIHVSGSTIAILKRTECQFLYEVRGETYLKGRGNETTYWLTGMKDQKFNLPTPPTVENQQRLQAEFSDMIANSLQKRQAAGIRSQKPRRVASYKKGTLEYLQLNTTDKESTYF

Target: T1, Guanylate Cyclase-C (Homo sapiens, UniProt P25092)
T1 construct: host or cells: T84 cells
Assay: Stimulation of guanylate cyclase-C induced by the toxin STa in T84 cells (cGMP accumulation)
Type: cell-based
Settings: test compound 50 μM, 10 min pre-incubation, then STa 1 μM for 10 min, mean ± SEM
Protocol: Protocol for the Stimulation of Guanylate Cyclase-C Induced by the Toxin STa in T84 Cells
Cells from the T84 line (ATCC CCL-248) are subculture according to supplier's instructions. Briefly, after washing the culture flask (75 cm^2) using 3 mL of 0.25% Trypsin solution (w/v) and 0.53 mM EDTA solution to remove the traces of serum, the same volume of trypsin is added to each bottle, and cells are observed under a microscope until detachment of the cellular layer (usually 8-10 minutes). […]
After the incubation period, the cells are stimulated with STa toxin (1 μM, 5 μL) and incubated in an incubator (37° C., 5% CO2 atmosphere) for 10 minutes. […] After the extraction period, the volume of each well is centrifuged (15000 rpm, 5 minutes, 25° C.) and an aliquot of the supernatant (0.3 mL) is quickly stored in a freezer at −20° C. for the subsequent quantification of the content of cGMP by the immunoassay method developed and described by HORTON et al. (1992) [Horton, J. K.; Martin, R. C.; Kalinka, S.; Cushing, A.; Kitcher, J. P.; O'Sullivan, M. J.; Baxendale, P. M., “Enzime immunoassays for the estimation of adenosine 3′,5′ cyclic monophosphate and guanosine 3′,5′ cyclic monophosphate in biological fluids”. […]

## Cn1c2c(c(=O)n(C)c1=S)C(c1cc(C(F)(F)F)cc(C(F)(F)F)c1)C1=C(N2)c2ccccc2C1=O (stereo not shown) [Compound V, 5-(3,5-bistrifluoromethylphenyl)-1,3-dimethyl-5,11-dihydro-1H-indeno-[2′,1′:5,6]pyrido[2,3-d]pyrimidine-2-thioxo-4,6-dione]
  cGMP, pmol/10 min/mg: 215.50 ± 34.57 pmol/10 min/mg
